Our source for the binding values is paper PMC11991697.

By UniProt entry, the sequences of proteins in these tests, tags left out. Where a name states a change or a piece, a line headed by the entry shows the natural chain unless it says otherwise.
UniProt P03372: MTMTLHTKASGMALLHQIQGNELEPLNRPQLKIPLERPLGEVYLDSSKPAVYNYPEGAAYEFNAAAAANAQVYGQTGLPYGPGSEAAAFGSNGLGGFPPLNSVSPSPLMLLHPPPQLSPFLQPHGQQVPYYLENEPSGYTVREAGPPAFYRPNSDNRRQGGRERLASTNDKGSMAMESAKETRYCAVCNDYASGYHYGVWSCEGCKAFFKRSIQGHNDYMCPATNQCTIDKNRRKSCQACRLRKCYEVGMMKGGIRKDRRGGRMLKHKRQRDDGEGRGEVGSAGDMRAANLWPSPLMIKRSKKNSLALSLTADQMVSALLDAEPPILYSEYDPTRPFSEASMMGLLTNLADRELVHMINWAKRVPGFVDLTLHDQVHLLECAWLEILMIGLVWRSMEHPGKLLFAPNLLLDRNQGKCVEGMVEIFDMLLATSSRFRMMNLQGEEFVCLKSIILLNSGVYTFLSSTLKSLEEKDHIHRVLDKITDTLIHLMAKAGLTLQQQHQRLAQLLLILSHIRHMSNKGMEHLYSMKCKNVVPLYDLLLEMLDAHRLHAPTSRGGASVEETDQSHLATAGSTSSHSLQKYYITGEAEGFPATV
UniProt Q05086: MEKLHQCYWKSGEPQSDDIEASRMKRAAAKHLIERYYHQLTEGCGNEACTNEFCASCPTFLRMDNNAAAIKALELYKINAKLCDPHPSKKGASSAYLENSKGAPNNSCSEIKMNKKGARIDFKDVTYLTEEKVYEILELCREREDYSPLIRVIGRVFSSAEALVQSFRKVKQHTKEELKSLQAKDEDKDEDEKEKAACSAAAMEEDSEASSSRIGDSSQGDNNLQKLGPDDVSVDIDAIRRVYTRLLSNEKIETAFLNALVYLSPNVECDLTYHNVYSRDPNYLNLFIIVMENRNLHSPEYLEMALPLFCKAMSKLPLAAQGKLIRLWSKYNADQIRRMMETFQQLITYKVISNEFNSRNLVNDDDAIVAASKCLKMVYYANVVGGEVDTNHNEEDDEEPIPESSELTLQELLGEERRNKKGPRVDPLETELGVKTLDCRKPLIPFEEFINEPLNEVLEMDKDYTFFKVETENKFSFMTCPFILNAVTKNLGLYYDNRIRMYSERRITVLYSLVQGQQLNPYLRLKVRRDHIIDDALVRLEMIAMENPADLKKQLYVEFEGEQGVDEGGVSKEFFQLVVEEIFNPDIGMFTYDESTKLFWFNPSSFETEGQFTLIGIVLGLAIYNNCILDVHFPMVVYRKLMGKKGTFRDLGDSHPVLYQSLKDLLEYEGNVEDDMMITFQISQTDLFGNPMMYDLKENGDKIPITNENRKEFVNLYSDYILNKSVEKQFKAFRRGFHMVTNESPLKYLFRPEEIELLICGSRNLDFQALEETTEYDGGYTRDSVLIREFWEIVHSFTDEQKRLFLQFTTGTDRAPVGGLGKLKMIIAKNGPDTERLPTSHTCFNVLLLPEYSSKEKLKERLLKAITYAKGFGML

For test [1], the target named is T1, Flag-FRMD8 (human) (UniProt Q9BZ67).
T1 sequence: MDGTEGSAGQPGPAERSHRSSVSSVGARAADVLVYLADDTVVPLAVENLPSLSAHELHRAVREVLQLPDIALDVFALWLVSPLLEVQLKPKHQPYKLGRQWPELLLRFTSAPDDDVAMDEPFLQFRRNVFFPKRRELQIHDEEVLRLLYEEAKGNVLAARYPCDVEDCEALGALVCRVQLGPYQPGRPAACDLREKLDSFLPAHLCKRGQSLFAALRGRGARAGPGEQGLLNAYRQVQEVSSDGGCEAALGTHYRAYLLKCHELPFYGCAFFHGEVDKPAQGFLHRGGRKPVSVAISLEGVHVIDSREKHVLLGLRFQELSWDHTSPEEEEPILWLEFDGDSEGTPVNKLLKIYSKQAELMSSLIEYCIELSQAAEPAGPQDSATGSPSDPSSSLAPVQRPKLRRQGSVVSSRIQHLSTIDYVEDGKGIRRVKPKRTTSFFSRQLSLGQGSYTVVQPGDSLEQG
Nature of the test: co-IP; lysates of HEK293T cells transfected with Flag, Flag-FRMD8 or Flag-UBE3A, anti-Flag immunoprecipitation, immunoblot. A general note: In western blotting, separated proteins are transferred to a membrane and probed.

Test [2] has as its target Flag-ERα (human) (UniProt P03372). The experiment in a line: co-IP; HEK293T and T47D cells co-transfected with Flag-ERα, HA-Ub and control or FRMD8 siRNA, MG132 (25 μM) for 6 h; whole-cell lysates immunoprecipitated with anti-Flag, immunoblot.
In test [3] the target is T2, GST-FRMD8 (human) (UniProt Q9BZ67).
T2 sequence: T1 sequence
The experiment in a line: pull-down; purified GST or GST-FRMD8 anchored on Glutathione Sepharose 4B beads, incubated with whole-cell lysate of HEK293T cells transfected with Flag-ERα, 4°C over 4 h, PBS washes, western blot; only the target purified.

Test [4] has as its target T1, Flag-FRMD8 (human). The experiment in a line: co-IP; lysates of MCF7 and T47D cells transfected with Flag or Flag-FRMD8, anti-Flag immunoprecipitation, immunoblot for ERα and Flag; RIPA buffer washes.
Test [5] addresses Flag-UBE3A (UniProt Q05086). The experiment in a line: co-IP; lysates of HEK293T cells transfected with Flag, Flag-FRMD8 or Flag-UBE3A, anti-Flag immunoprecipitation, immunoblot.
For test [6], the target named is endogenous ERα (human (endogenous in MCF7 and T47D)) (UniProt P03372). The experiment in a line: co-IP; endogenous proteins; MCF7 lysates immunoprecipitated with IgG or anti-ERα, immunoblot for FRMD8 and ERα.

Results are given in words; binding and its absence hold for the method and conditions named. Binding seen in cells or lysates may run through a third protein. Some binding calls cover weakened binding; strength is not graded here. For some of these results: Where a sequence is shown, tags or fusion partners need not be part of it.

Take “endogenous UBE3A (from UniProt Q05086 1-875) (enzyme)”: the binding result in test [1] and in test [2] was “binds” in each case. “Flag-ERα (from UniProt P03372 1-595) (receptor)”: the binding entry in test [3] is “binds”. Take “endogenous ERα (from UniProt P03372 1-595) (receptor)”: the binding result in test [4] is on record as “binds”.

B1: endogenous FRMD8 (protein, UniProt Q9BZ67 1-464)
chain: T1 sequence
B1: the binding result in test [5], in test [6] and in test [2] was “binds” each time.
